Laboratory results reported in PMC4676636.

By UniProt entry, the sequences of proteins in these tests, tags left out. Residues count along the entry.
UniProt Q04912, 25-1400: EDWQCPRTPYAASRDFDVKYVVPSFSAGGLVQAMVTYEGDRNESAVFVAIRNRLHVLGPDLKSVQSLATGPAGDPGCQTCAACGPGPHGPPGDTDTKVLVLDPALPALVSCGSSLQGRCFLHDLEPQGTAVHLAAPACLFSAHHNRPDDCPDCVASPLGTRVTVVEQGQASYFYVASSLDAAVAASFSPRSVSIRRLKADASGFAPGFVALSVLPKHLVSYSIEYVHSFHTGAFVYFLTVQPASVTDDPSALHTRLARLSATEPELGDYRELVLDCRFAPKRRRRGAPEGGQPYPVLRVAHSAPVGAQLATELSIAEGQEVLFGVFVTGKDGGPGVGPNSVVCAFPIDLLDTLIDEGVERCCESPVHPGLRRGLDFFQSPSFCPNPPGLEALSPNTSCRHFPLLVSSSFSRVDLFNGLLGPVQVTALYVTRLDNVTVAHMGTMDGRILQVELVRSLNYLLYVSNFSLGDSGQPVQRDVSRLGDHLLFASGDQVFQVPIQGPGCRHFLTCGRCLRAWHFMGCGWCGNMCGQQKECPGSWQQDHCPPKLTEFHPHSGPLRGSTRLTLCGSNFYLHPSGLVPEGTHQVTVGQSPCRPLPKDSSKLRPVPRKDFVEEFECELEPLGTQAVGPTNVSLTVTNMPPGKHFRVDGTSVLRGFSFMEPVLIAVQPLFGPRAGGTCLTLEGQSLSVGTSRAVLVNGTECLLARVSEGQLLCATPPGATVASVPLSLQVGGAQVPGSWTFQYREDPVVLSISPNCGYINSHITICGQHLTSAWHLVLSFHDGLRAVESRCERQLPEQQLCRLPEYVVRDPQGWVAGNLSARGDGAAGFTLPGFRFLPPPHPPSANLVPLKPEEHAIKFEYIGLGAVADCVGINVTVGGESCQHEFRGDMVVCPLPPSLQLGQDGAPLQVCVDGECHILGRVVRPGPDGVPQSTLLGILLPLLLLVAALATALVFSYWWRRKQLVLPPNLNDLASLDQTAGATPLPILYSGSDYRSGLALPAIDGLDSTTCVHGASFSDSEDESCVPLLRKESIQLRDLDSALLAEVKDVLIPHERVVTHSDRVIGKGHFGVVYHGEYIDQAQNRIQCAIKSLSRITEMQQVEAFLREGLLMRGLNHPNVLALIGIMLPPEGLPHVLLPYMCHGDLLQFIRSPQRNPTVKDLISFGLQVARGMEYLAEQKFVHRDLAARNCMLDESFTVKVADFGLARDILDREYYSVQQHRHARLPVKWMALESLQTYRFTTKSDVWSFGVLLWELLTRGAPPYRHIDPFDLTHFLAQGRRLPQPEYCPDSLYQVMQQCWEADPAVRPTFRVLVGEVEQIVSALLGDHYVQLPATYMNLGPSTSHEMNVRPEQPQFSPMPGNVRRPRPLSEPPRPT
UniProt P08581, 25-1390: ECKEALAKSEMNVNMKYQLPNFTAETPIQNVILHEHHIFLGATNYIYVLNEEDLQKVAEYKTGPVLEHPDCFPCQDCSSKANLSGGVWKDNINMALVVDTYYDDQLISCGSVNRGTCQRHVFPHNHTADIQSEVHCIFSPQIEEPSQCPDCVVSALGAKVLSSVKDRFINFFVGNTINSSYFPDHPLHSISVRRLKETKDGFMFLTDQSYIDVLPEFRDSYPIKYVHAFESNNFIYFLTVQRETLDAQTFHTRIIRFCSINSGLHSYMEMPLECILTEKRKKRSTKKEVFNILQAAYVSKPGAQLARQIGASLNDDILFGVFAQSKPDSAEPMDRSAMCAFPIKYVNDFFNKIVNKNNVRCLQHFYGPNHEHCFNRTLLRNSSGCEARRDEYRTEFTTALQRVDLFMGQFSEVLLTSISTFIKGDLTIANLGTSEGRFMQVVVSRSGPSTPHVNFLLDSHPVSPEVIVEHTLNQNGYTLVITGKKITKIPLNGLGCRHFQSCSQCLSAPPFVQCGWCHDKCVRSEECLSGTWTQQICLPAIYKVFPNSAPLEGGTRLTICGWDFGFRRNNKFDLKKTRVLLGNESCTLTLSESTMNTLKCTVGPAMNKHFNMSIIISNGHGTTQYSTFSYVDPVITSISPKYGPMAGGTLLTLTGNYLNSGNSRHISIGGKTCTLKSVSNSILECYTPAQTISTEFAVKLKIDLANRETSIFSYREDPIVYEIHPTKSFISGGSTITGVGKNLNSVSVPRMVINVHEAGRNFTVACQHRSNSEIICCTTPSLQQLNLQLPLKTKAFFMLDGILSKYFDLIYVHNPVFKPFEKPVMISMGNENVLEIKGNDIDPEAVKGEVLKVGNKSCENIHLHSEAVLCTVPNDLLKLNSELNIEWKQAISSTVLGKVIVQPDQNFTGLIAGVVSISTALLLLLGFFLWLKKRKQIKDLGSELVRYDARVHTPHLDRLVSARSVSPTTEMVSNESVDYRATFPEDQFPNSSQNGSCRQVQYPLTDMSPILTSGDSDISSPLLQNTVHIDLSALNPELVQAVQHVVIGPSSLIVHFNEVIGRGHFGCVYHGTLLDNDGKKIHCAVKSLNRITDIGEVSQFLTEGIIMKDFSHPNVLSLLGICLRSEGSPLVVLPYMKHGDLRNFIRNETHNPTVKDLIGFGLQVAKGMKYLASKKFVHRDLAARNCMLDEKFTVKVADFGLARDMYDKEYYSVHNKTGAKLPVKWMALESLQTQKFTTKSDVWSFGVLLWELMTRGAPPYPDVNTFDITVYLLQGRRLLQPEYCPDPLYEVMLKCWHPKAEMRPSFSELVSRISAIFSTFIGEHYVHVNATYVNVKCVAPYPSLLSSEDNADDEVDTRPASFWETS

What was measured:
[1] = biological target: RON on MDA-MB-453 cells (Homo sapiens) (UniProt Q04912); assay: flow cytometry; conditions: MDA-MB-453 cells, flow cytometry: PBS/1% BSA, 4 C, 30 min, protein on the cell surface
[2] = biological target: c-Met on EBC-1 cells (Homo sapiens) (UniProt P08581); assay: flow cytometry; conditions: flow cytometry: PBS/1% BSA, 4 C, 30 min, protein on the cell surface
[3] = 2'-O-methyl purines and 2'-fluoro pyrimidines (mRfY), label: none (competitor), 3'-biotin (CLN-F-B, cells), synthetic backbone
[4] = label: 3'-biotin (CLN118-B), single-stranded DNA

GGAGGGAAAAGTTATCAGGCCGCTAGTTACCAGGTGTAGCTGACCAAGCGGATGTGTGTTGATTAGTTTTGGAGTACTCGCTCC [CLN-F]
binding result [1, 3]: no binding | binding result [2, 3]: no binding

GGAGGGAAAAGTTATCAGGCATCACGTGGTGGGCAAATAACCGGTTGGGGTGGGTCGAGGGATTAGTTTTGGAGTACTCGCTCC [CLN118]
binding result [1, 4]: no binding | binding result [2, 4]: no binding

For at least one entry, the source does not settle the construct or the ends of the probe. Where cells or extracts were used, other partners may take part. A negative result means that nothing was seen under these conditions.
